Values joined by “and” are separate entries in the source; they are usually repeats but may differ in a detail not shown here. Equal values may be shown once. Screen size: about 580,000 compounds; about 6,100 (1.1%) were called active. This list was built around the results that the source calls inconclusive (neither active nor inactive); the mix of calls is not that of the screen. Calls come from the whole dose curve; as a rule, active = well fitted inhibition curve with a large enough effect; inconclusive = small, poorly fitted or top-dose-only effect, or another doubt; inactive = no such curve, though single readings can be large or run the other way. Where the call is inconclusive, the potency comes from a doubtful curve fit.
Target: Polyunsaturated fatty acid lipoxygenase ALOX12 (Homo sapiens) (UniProt P18054)
Assay: Primary qHTS assay for inhibitors of human arachidonate 12S-lipoxygenase (ALOX12): Round 2
Settings: purified 12hLO, xylenol orange hydroperoxide absorbance; activity change, negative = inhibition: at 108 µM (top of the series) unless noted
Method in brief: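 Purified human 12hLO (150 nM final) in 25 mM Hepes, 0.01% Triton X-100, pH 7.0 was preincubated 15 min at room temperature with compound. Then 40 uM arachidonic acid was added, 30 min. Hydroperoxide was read by Fe-XO absorbance ratio 573/405 nm.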
% is set by controls: 0 for no effect and ±100 for the full control effect; potency is the fitted concentration of half-maximal effect.

By UniProt entry, the sequences of proteins in these tests, tags left out. Where a name states a change or a piece, a line headed by the entry shows the natural chain unless it says otherwise.
UniProt P18054: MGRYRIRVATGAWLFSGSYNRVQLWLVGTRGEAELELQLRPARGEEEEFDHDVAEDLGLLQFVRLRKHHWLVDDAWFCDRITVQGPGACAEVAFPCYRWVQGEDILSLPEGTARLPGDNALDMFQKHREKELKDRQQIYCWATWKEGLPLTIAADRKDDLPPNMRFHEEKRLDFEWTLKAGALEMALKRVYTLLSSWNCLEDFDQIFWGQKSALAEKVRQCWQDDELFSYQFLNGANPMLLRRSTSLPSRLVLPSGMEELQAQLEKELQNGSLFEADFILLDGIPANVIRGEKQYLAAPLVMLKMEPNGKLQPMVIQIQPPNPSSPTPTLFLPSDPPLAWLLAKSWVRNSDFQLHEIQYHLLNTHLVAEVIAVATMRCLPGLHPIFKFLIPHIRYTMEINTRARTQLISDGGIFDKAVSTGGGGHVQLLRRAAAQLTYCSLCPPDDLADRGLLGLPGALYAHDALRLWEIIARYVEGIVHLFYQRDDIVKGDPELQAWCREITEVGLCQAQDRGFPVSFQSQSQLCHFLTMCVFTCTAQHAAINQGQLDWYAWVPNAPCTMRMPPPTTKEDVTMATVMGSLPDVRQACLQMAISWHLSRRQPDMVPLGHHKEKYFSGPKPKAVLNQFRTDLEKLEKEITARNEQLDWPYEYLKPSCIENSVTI

Q: With `O=C(CSc1nnc(-c2ccc(Br)cc2)n1-c1ccccc1)c1ccccc1` as the compound, how does the Potency read?
A: inconclusive: 17.8 µM [inhibitor, partial curve, poor fit]

Q: `S=C(NCCc1ccc(Cl)cc1Cl)NC1CC2CCC1C2` (centres undefined) was tested. Which Potency did it give?
A: inconclusive: 35.5 µM [inhibitor, partial curve, poor fit]

Q: How did the Potency turn out when `CCOc1ccc(-c2cc(C(=O)N3CCN(c4cccc(C(F)(F)F)c4)CC3)c3ccccc3n2)cc1` was run?
A: inactive

Q: Which Potency does the source give for `CCCN1C(=O)C(NC(=O)c2ccc(C(C)(C)C)cc2)(C(F)(F)F)C(C(=O)OC)=C1C` (centres undefined) here?
A: inactive

Q: With `CC(=O)Nc1nnc(C)s1` as the compound, how does the Potency read?
A: inactive

Q: For `COCCN1C(=O)N[C@@H](c2ccco2)C(C(=O)OC)=C1C`, which Potency is on record?
A: inconclusive: 56.2 µM [inhibitor, partial curve, poor fit]

Q: `COCCNc1nc(NCc2cc(-c3ccc(OC)cc3)no2)c2sccc2n1` was tested. Which Potency did it give?
A: inconclusive: 112 µM [inhibitor, single point]

Q: How did the Potency turn out when `O=c1[nH]c2c(s1)C=Nc1ccccc1N2` was run?
A: inactive

Q: How did the Potency turn out when `Cc1cc(N2C(=O)C(O)=C(C(=O)c3cc4ccccc4o3)C2c2ccc(F)cc2)no1` (centres undefined) was run?
A: inconclusive: 44.7 µM [inhibitor, partial curve, poor fit]

Q: For `O=C(Cn1nc(N2CCCCC2)c2ccccc2c1=O)Nc1ccc(Cl)cc1`, which Potency is on record?
A: inactive

Q: `c1ccc2c(C3=NNC(=NC4CCCCC4)SC3)c[nH]c2c1` was tested. Which Potency did it give?
A: inactive and inconclusive: 50.1 µM [inhibitor, partial curve, poor fit]

Q: `CCCCOc1ccc(C(=O)NC(=S)NCCCO)cc1Br` was tested. Which Potency did it give?
A: active: 7.94 µM

Q: `CCOC(=O)c1ccc(-n2c(CN3CCOCC3)nc3ccc([N+](=O)[O-])cc3c2=O)cc1` was tested. Which Potency did it give?
A: inactive

Q: With `COc1cccc(-c2cc(NCc3ccccc3)ncn2)c1` as the compound, how does the Potency read?
A: inactive

Q: Which Potency does the source give for `O=C(NC(=S)Nc1ccc(-c2ccccc2)cc1)c1ccccc1` here?
A: inconclusive: 10 µM [inhibitor, partial curve, poor fit]

Q: How did the Potency turn out when `N#Cc1ccc(Cn2cnc3c(Cl)cc(Cl)cc3c2=O)cc1` was run?
A: inconclusive: 3.55 µM [inhibitor, full curve, poor fit]

Q: Which Potency does the source give for `O=C(CN1C(=O)C(c2ccccc2)=NC12CCCCCC2)Nc1cccc(Cl)c1` here?
A: inconclusive: 8.91 µM [inhibitor, full curve]

Q: How did the Potency turn out when `CC1=C(c2ccccc2)C(=S)NC(C)(C)C1` was run?
A: inconclusive: 44.7 µM [inhibitor, partial curve, poor fit]

Q: Which Potency does the source give for `CC(=O)c1ccc(-c2ccc(C(=O)Nc3nc(C)c(C(C)=O)s3)o2)cc1` here?
A: inconclusive: 126 µM [inhibitor, single point]

Q: How did the Potency turn out when `CCCCN1CC(=O)N2[C@H]3c4cc(Cl)ccc4OC[C@@H]3[C@H](c3ccccc3)[C@]2(C)C1=O` was run?
A: inconclusive: 79.4 µM [inhibitor, single point]

Q: `CC(=O)N1CCc2cc(Br)cc(S(=O)(=O)CCC(=O)Nc3ccc(C)cc3Cl)c21` was tested. Which activity change, negative = inhibition did it give?
A: inconclusive: -31.7% [inhibitor]

Q: `Cc1ccc(S(=O)(=O)NCC(c2cccnc2)N2CCN(Cc3ccccc3)CC2)cc1` (centres undefined) was tested. Which Potency did it give?
A: inconclusive: 50.1 µM [inhibitor, single point]

Q: How did the Potency turn out when `CCN1CCN(c2cc(C)c3cc(NC(=O)c4ccccc4F)ccc3n2)CC1` was run?
A: inactive

Q: For `CC(=O)Nc1ccc(CNc2ncnc3ccc(-c4c(C)noc4C)cc23)cc1`, which Potency is on record?
A: inconclusive: 14.1 µM [inhibitor, full curve]

Q: Which Potency does the source give for `COc1ccc(OC)c(NC(=O)C2CC(=O)N(Cc3ccco3)C2)c1` (centres undefined) here?
A: inconclusive: 44.7 µM [inhibitor, partial curve, poor fit]

Q: How did the Potency turn out when `CCn1ccc2oc(C)c(C(=O)N3CCN(c4ccc(OC)cc4)CC3)c2c1=O` was run?
A: inactive

Q: Which Potency does the source give for `O=[N+]([O-])c1ccccc1S(=O)(=O)N1CCN(C2CCCC2)CC1` here?
A: inactive

Q: Which Potency does the source give for `Cc1ccc(-c2nnc(SCC(=O)CC(=O)Nc3ccccc3)n2-c2ccccc2)cc1` here?
A: inconclusive: 35.5 µM [inhibitor, full curve, poor fit]

Q: For `Cn1nc(C(F)(F)F)c(/C=N/OC(=O)c2ccccc2)c1Sc1ccc(Cl)cc1`, which Potency is on record?
A: inactive

Q: `CCCCCCn1cc(CN2CC(N3CCN(C4CCN(C)CC4)CC3)CS2(=O)=O)nn1` (centres undefined) was tested. Which Potency did it give?
A: inconclusive: 12.6 µM [inhibitor, full curve]

Q: `O=C(Cn1nc(C(=O)O)c2ccccc2c1=O)Nc1c(F)cccc1F` was tested. Which Potency did it give?
A: inconclusive: 100 µM [inhibitor, partial curve, poor fit]

Q: With `Cc1noc(C)c1S(=O)(=O)N1CCCC(CO)CCNC(=O)CC1` (centres undefined) as the compound, how does the Potency read?
A: inconclusive: 100 µM [inhibitor, partial curve, poor fit]

Q: `CC(C)(C)C(=O)N1CCN(c2ncccc2C(F)(F)F)CC1` was tested. Which Potency did it give?
A: inactive

Q: How did the Potency turn out when `COc1ccc(NC(=O)C2CCCN(C(=O)c3ccc(Cl)cc3)C2)cc1Cl` (centres undefined) was run?
A: inconclusive: 112 µM [inhibitor, single point]

Q: For `Cc1ccc(-c2csc3c2NC(=O)CC3c2ccc(OCC(N)=O)cc2)cc1` (centres undefined), which Potency is on record?
A: inconclusive: 126 µM [inhibitor, single point]

Q: `CCCn1c(N/N=C\C=C\c2ccccc2)nc2c1c(=O)[nH]c(=O)n2C` was tested. Which Potency did it give?
A: inactive

Q: For `Cc1ccc(-n2cccc2CC(=O)N(C)Cc2ccco2)cc1`, which Potency is on record?
A: inconclusive: 10 µM [inhibitor, full curve]

Q: Which Potency does the source give for `Cc1ccccc1Oc1c(CCC(=O)N2CCSCC2)c(C)nn1-c1ccccc1C` here?
A: inactive

Q: With `CC(=O)Nc1cccc(-c2ccnc3c2CC(C(=O)Nc2cccc(OC(F)(F)F)c2)O3)c1` (centres undefined) as the compound, how does the Potency read?
A: inconclusive: 141 µM [inhibitor, partial curve, poor fit]

Q: Which Potency does the source give for `COCCn1c(-c2ccc(Cl)cc2)nc2oc3cc(OC)ccc3c(=O)c2c1=O` here?
A: inconclusive: 112 µM [inhibitor, partial curve, poor fit]

Q: With `CCS(=O)(=O)N1CCN(C2Cc3ccccc3C2)CC1` as the compound, how does the Potency read?
A: inconclusive: 50.1 µM [inhibitor, partial curve, poor fit]

Q: How did the Potency turn out when `O=[N+]([O-])c1ccc(S(=O)(=O)NN=C2CCCCC2)cc1` was run?
A: inactive

Q: Which Potency does the source give for `O=C(CCN1CCC(c2ccccc2)C1)c1cccc2ccccc12` (centres undefined) here?
A: active: 25.1 µM

Q: For `CCCCCc1ccc(C(=O)CCCC)c(=S)[nH]1`, which Potency is on record?
A: inconclusive: 50.1 µM [inhibitor, partial curve, poor fit]

Q: With `CC1(C)CC(=O)C2=C(C1)Nc1cc3c(cc1C2c1ccc(OCC(=O)O)cc1)OCO3` (centres undefined) as the compound, how does the Potency read?
A: inconclusive: 56.2 µM [inhibitor, partial curve, poor fit]

Q: How did the Potency turn out when `CN(C(=O)c1cn(C)c2ccccc12)c1ccc(Oc2cccnc2)cc1` was run?
A: inactive

Q: `CSCCCc1cn([C@@H](CO)C(=O)NCCCCCCCCCCC(=O)N2CCNCC2)nn1` was tested. Which Potency did it give?
A: inconclusive: 1.12 µM [inhibitor, full curve, poor fit]

Q: `COc1ccc2c(c1)[C@H]1[C@H](CO2)[C@H](c2ccccc2)[C@@]2(C)C(=O)N[C@H](C)C(=O)N12` was tested. Which Potency did it give?
A: inactive

Q: Which Potency does the source give for `CN(C)CCCN(C(=O)c1ccc(S(=O)(=O)N(C)Cc2ccccc2)cc1)c1nc2cc3c(cc2s1)OCO3` here?
A: inconclusive: 50.1 µM [inhibitor, partial curve, poor fit]

Q: `CC(C)(C)C1C/C(=C/c2cccs2)c2nc3ccccc3c(C(=O)O)c2C1` (centres undefined) was tested. Which Potency did it give?
A: inconclusive: 39.8 µM [inhibitor, partial curve]

Q: Which Potency does the source give for `CCC(C)NCCOc1cccc(Br)c1` (centres undefined) here?
A: inconclusive: 2.82 µM [inhibitor, full curve, poor fit]

Q: How did the Potency turn out when `Cc1cccc2n[nH]nc12` was run?
A: inconclusive: 39.8 µM [inhibitor, partial curve, poor fit]

Q: How did the Potency turn out when `Cc1ccc(-n2c(SCC(N)=O)nc3c([nH]c4ccccc43)c2=O)cc1` was run?
A: inconclusive: 112 µM [inhibitor, single point]

Q: How did the Potency turn out when `Cc1ccc(Nc2nc(N3CCOCC3)c3ccccc3n2)cc1` was run?
A: inconclusive: 35.5 µM [inhibitor, partial curve, poor fit]

Q: `O=C(CNCc1ccco1)Nc1cccc(S(=O)(=O)N2CCCCC2)c1` was tested. Which Potency did it give?
A: inconclusive: 1.12 µM [inhibitor, full curve, poor fit]

Q: How did the Potency turn out when `O=C(c1ccc(CS(=O)(=O)c2c(Cl)cccc2Cl)o1)N1CCN(c2ccccc2)CC1` was run?
A: inactive

Q: How did the Potency turn out when `O=C(CSc1nc2cc([N+](=O)[O-])ccc2o1)Nc1ccc(F)cc1` was run?
A: inconclusive: 44.7 µM [inhibitor, partial curve, poor fit]

Q: Which Potency does the source give for `Cc1oc(=O)c(NC(=O)c2ccc(Cl)cc2)cc1C(=O)c1ccccc1` here?
A: inconclusive: 35.5 µM [inhibitor, partial curve, poor fit]

Q: With `Cc1sc2nc(SCc3ccc(Cl)cc3)n(CCCN3CCOCC3)c(=O)c2c1C` as the compound, how does the Potency read?
A: inconclusive: 79.4 µM [inhibitor, single point]

Q: For `CC(C)N(CC(N)=O)c1ccc(S(=O)(=O)N2CCCC2)cn1`, which Potency is on record?
A: inconclusive: 44.7 µM [inhibitor, partial curve, poor fit]

Q: For `NC(=O)c1cc([N+](=O)[O-])ccc1N1CCN(Cc2ccccc2)CC1`, which Potency is on record?
A: inconclusive: 25.1 µM [inhibitor, partial curve, poor fit]

Q: For `Cc1ccc2c(Cn3nc(C)c(C)c(C#N)c3=O)cc(=O)oc2c1`, which Potency is on record?
A: inconclusive: 100 µM [inhibitor, partial curve, poor fit]

Q: How did the Potency turn out when `CC1=C(/C=C/C(C)=C/C=C/C(C)=C/C=C/C=C(C)/C=C/C=C(\C)C=O)C(C)(C)CCC1` was run?
A: inconclusive: 39.8 µM [inhibitor, partial curve, poor fit]

Q: `Cc1cc(/C=N/Nc2ccc([N+](=O)[O-])cn2)c(C)n1-c1ccc(C(=O)O)cc1` was tested. Which Potency did it give?
A: inconclusive: 50.1 µM [inhibitor, partial curve, poor fit]

Reference: PubChem BioAssay AID1671190 (National Center for Advancing Translational Sciences (NCATS), 2021)
